# Test results reported in patent US20110009345A1, “Food ingredient comprising functional peptide” (priority 2009, published 2011).
# Test system: Sarcoma 180
# Details: female Swiss-Webster mice, by gavage for eleven days, compared with control
structure (smiles),measurement,value
"N=C(N)NCCC[C@H](NC(=O)[C@H](CO)NC(=O)CNC(=O)[C@@H](N)Cc1ccc(O)cc1)C(=O)N[C@@H](CO)C(=O)O [peptide, tyrosine-glycine-serine-arginine-serine]",toxicity judged by increase of weight,nontoxic
